The values that follow come from publication PMC5955555.

Protein sequences, listed by entry. Tags and fused reporters are not part of them.
UniProt P70605: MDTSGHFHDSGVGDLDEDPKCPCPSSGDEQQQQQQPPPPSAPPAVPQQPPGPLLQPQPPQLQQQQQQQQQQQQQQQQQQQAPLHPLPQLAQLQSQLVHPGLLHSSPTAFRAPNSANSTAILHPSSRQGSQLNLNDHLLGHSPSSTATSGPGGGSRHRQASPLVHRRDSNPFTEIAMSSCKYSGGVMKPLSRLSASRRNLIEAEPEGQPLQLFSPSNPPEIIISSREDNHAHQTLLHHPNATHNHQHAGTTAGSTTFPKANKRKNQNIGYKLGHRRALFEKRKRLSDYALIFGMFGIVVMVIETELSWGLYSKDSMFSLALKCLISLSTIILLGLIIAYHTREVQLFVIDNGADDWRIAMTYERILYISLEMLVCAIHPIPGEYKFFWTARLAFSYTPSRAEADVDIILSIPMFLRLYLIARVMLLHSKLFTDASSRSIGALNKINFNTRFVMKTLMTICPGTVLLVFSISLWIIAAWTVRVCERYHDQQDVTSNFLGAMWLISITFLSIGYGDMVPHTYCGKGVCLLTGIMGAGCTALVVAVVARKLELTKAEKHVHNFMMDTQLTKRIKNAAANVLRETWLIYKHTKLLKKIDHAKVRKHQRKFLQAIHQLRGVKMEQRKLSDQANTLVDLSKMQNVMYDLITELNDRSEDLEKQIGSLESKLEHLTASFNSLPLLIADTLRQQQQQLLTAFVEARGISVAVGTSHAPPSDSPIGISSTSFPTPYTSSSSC
UniProt Q12846: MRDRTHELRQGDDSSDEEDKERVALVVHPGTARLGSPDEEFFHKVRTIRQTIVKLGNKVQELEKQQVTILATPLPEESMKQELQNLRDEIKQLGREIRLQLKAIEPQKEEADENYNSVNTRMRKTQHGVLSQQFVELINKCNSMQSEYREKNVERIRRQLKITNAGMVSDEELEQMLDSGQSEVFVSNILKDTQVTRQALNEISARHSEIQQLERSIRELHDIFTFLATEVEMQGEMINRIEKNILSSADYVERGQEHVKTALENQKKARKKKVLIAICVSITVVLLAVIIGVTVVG
UniProt Q9HBA0: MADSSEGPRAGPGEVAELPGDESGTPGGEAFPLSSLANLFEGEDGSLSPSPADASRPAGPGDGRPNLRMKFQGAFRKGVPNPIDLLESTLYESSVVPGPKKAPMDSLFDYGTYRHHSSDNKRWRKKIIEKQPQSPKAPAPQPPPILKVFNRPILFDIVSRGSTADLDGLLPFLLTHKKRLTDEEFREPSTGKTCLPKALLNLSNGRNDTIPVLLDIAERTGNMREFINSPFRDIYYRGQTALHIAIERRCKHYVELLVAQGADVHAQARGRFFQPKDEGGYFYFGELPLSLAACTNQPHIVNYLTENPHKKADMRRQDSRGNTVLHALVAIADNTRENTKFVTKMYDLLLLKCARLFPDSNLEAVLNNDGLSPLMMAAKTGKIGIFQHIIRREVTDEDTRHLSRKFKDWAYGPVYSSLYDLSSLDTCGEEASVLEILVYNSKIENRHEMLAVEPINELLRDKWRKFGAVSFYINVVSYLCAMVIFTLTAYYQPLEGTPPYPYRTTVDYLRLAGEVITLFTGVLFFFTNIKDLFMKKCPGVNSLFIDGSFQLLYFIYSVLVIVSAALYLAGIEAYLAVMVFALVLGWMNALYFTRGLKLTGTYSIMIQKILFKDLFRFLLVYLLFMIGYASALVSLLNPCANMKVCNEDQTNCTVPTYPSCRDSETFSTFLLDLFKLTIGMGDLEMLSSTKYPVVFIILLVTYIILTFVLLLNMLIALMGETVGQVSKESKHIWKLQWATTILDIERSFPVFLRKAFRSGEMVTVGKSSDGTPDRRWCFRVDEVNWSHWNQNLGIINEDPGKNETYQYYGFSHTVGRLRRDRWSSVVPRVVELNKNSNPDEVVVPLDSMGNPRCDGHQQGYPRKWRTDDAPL

Assay [1] addresses PM localized KCa2.3 (unpublished co-IP with TRPV4) (UniProt P70605). As to the kind of experiment: co-IP; unpublished observation; TRPV4 associated with PM localized KCa2.3, amount doubled on increasing intracellular Ca2+.
Assay [2] has as its target GFP-tagged syntaxin-4 (UniProt Q12846). As to the kind of experiment: co-IP; HEK cells transfected with myc-KCa2.3 (alone, or with GFP-syntaxin-4); one partner immunoprecipitated from lysate, immunoblot for the other; IgG control. (In general: Immunoblotting shows a protein as a band on a membrane.)
Assay [3] has as its target myc-tagged KCa2.3 (UniProt P70605). The assay is described as above.

Results are given in words; binding and its absence hold for the method and conditions named. Binding seen in cells or lysates may run through a third protein. Some entries that bind do so weakly or less than the wild type.

For the molecule TRPV4 (from UniProt Q9HBA0 1-871), the binding result in assay [1] is recorded as “binds”.
As to “myc-tagged KCa2.3 (from UniProt P70605 1-732)”, the binding entry in assay [2] is on record as “binds”.

B1: SNAP-23 (endogenous, HEK cells) (protein, UniProt O00161 1-211)
chain: MDNLSSEEIQQRAHQITDESLESTRRILGLAIESQDAGIKTITMLDEQKEQLNRIEEGLDQINKDMRETEKTLTELNKCCGLCVCPCNRTKNFESGKAYKTTWGDGGENSPCNVVSKQPGPVTNGQLQQPTTGAASGGYIKRITNDAREDEMEENLTQVGSILGNLKDMALNIGNEIDAQNPQIKRITDKADTNRDRIDIANARAKKLIDS
B1: in assay [3], the binding entry is on record as “binds”.
